Measured values as given in US20260022352A1, “COMPOSITIONS AND METHODS FOR PURIFYING […]” (North Carolina State University, priority 2023, published 2026).
Where “and” joins values, the source holds several entries; their conditions need not be identical. Equal values may be shown once. Read-outs that look alike come from different tables or passages of the source.

Tested on: HEK293 host cell proteins

Substance | HCP LRV | other results
SKSAAEHE | 1.24 and 1.75 | HCP LRV (pH 7.4): 1.81
KAHEHIFW | 0.56 | –
SHFAWASE | 0.91 | –
FWSAFINE | 1.98 | –
C-cyclo[GSRAFVGDAD]C-GSG | – | HCP LRV (pH 7.4): 2.94
FEKISNAE | 1.61 and 1.62 and 1.82 and 1.81 and 2.01 | HCP LRV (pH 7.4): 2.39; HCP LRV (pH 8): 2.39
NWFWSFNE | 2.05 | –
GASFFISW | 1.59 | –
AFIHEAWS | 1.42 | –
SIEINSSE | 1.69 and 2.49 | –
SRQFVCGDSDRDGSG | – | HCP LRV (pH 7.4): 2.42
GNSNAAHF | 0.71 | –
SRAFVGDADRDGSG | – | HCP LRV (pH 7.4): 2.20
NNWHEWHI | 1.48 | –
GEFENINW | 1.62 and 1.73 and 2.71 and 2.39 and 2.37 | HCP LRV (pH 8): 1.92
NKGHSHEE | 0.79 | –
NAAFIWNH | 2.07 | –
WHISHAAN | 1.52 | –

Substance | HCP LRV | other results
SESIIAWW | 1.81 | –
ESFWFNNE | 1.98 | –
WESIIFAA | 1.79 | –
EHFEHWSE | 1.88 | HCP LRV (pH 7.4): 2.32
FWIAIEAI | 1.81 | –
SNEIEIAN | 1.84 and 2.25 | –
WSSISEGG | 2.31 | –
IWEFKNHE | 1.31 | –
LKIWEWEI | 0.58 | –
C-cyclo[GSRAFVGDAD]C (CGSRAFVGDADC; cyclised) | – | HCP fold reduction: 871 fold; residual HCP titer: ~0.34 g/mL
FGKSAAAA | 0.54 | –
GSWGGHHW | 1.51 | –
HAWENNFG | 1.12 | –
SWFHWNGW | 0.52 | –
WFIIEESG | 1.83 | –
WFWHAAIF | 2.08 | –
SHIKNSAN | 0.78 | –
SFVRIGLSDGSG | – | HCP LRV (pH 7.4): 2.02
